No constants are given. Whether binding was seen depends on the method and setting. In cells and extracts the contact can be indirect. Some results given as binding are weak or reduced against the parent protein; the word gives no strength.

By UniProt entry, the sequences of proteins in these tests, tags left out.
UniProt O43903: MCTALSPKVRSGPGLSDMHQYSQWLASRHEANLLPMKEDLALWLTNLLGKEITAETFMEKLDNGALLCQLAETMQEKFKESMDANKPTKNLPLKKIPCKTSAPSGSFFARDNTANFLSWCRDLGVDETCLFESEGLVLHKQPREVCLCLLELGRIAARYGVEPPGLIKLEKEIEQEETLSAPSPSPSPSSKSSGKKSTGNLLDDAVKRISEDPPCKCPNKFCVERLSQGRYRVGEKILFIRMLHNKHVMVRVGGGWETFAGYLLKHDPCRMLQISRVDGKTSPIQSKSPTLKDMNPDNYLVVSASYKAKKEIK
UniProt P61073: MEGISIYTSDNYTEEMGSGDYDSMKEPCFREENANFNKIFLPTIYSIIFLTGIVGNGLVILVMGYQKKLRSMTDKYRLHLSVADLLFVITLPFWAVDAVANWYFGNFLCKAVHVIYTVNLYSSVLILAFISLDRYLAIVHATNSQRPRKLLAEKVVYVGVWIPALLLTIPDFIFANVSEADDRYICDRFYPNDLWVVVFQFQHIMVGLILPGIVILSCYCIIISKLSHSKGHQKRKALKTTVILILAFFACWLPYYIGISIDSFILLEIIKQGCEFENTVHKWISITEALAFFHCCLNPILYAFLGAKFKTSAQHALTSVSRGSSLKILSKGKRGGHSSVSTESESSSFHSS

Consider 1 substance from paper PMC9580887.

The assay addresses Growth arrest-specific protein 2 (GAS2), endogenous in Jurkat cells (human (endogenous in Jurkat)) (UniProt O43903). Briefly: co-IP; endogenous proteins of Jurkat cells; 500 ug lysate with anti-GAS2 or anti-CXCR4 antibody or isotype control, protein G Plus-Agarose, immunoblot. For orientation: A western blot detects proteins with antibodies after separation by electrophoresis.

With “C-X-C chemokine receptor type 4 (CXCR4), endogenous in Jurkat cells (from UniProt P61073 1-352)”, the binding entry is “binds”.
